# Results of single-concentration screens

T. brucei: 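Whole-parasite assay of Trypanosoma brucei over 72 hours; the read-out is not stated. Tested at 30 µM. Direction is inferred from retests: higher values go with stronger inhibition. Values scatter widely below zero; nearly all retest evidence comes from the higher of the two concentrations used. Of about 64,000 compounds tested this way, about 940 (1.5%) reached 50% or more in at least one test.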
Leishmania in macrophages: 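Cell assay of Leishmania donovani living inside macrophages; the read-out is not stated. Compounds at 30 µM. Higher reads as stronger inhibition (inferred: compounds with an IC50 in retests scored well above the rest). Size under these conditions: about 69,000 compounds, about 1,000 of them at 50% or above in at least one test.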

The filed quantity is “Percent Effect” (%). How 0% and 100% were set is not recorded. Most values in the screen are low, and negative values occur. Compounds were drawn at random from those tested, without regard to their results. A dash means the value is not listed here; it may have been measured.

structure	T. brucei	Leishmania in macrophages
CNS(=O)(=O)c1cccc(CNC(=O)NCC2CCOC2)c1 (stereo not drawn)	9.551	19.63
CN1CCc2[nH]nc(C(=O)N3CCC4(CCCO4)CC3)c2C1	5.474	4.046
O=C(Nc1ccccc1)[C@H]1O[C@H](CCN2CCCCC2)CC[C@@H]1O	-2.368	10.65
CS(=O)(=O)NC1CCCN(C(=O)Nc2cccnc2)C1 (stereo not drawn)	-	-4.572
CC(C)c1nc(N2CCC(N3CCCCCC3)CC2)c2cnn(C)c2n1	-41.52	22.1
CCOc1ccccc1C(=O)N1CCCC1c1ncc2c(n1)CCNC2.Cl (stereo not drawn)	-39.01	-17.72
COCC(=O)N1CCCn2c(CN3CCCCC3)nnc2C1.O=C(O)C(F)(F)F	-24.99	-9.377
NC(=O)C1CCN(C(=O)CSC2CCCc3ccccc32)CC1 (stereo not drawn)	-5.496	-13.02
CCc1ccsc1C(=O)N1CCCN(Cc2cnn(CC)c2)CC1	-	29.89
COc1cc(CNCCNC(=O)c2ccc(O)cc2)ccc1SC	3.087	-9.918
CCCc1nc(C)c(C(=O)NCCNc2ncccc2C#N)s1	-18.48	-11.14
CCc1nnc(N2C[C@@H](CN(C)CCO)[C@@H](CO)C2)s1	-6.623	25.87
O=C(Cc1ccc2c(c1)CCO2)Nc1cccnc1-n1cncn1	-36.53	0.5829
[H][C@]12CN(c3ccc(C)nn3)CC[C@@]1(O)CCN(S(C)(=O)=O)C2	-77.11	28.66
Cc1ccccc1CN1CCN(C(=O)CCn2ccccc2=O)CC1	-7.098	26.74
[H][C@@]12COC[C@]1(CNS(=O)(=O)CC)CN(Cc1cc(C)on1)C2	-	5.381
O=C(O)C(F)(F)F.O=C(O)C(F)(F)F.[H][C@@]12CCCO[C@]1([H])[C@H](NC(=O)CC1CC1)CN(Cc1ccncc1)C2	-13	17.88
COc1cc(NC2CCN(C3CCS(=O)(=O)CC3)CC2)ncn1	-16.34	36.7
CN(C)C(=O)CNC(CC(F)(F)F)c1ccc(Cl)cc1 (stereo not drawn)	-0.5755	-10.63
Cc1cnc(N2CCC3(CC2)CC(NS(C)(=O)=O)CO3)nc1 (stereo not drawn)	-9.555	4.252
Cc1cn2nc(N3CCCC3C(=O)N3CCSCC3)sc2n1 (stereo not drawn)	-49.07	-17.57
O=C(NCCN1CCCC1)c1cc2c(s1)CCN2C(=O)c1ccccc1	-8.761	8.546
CC(=O)N1Cc2ccccc2C[C@H]1C(=O)N(C)Cc1ccccn1	35.15	-4.948
c1ccc(-c2cc(CN3CCCC(Cn4cncn4)C3)on2)cc1 (stereo not drawn)	-	19.33
Cc1nc(CNC(=O)Cn2nc(-c3ccc(F)cc3)oc2=O)cs1	-29.53	-4.773
CCC(C)C(=O)NCCc1nc(C(F)(F)F)cs1 (stereo not drawn)	5.671	1.405
Cn1cc(-c2cnc3n2CCC32CCN(S(C)(=O)=O)CC2)cn1	-27.99	-14.88
CCc1noc(C(C)N2CCN(Cc3noc(C)n3)CC2)n1 (stereo not drawn)	-51.9	-17.38
O=C(c1ccc(-c2ccoc2)nc1)N1CCCN(C2CCCCC2)CC1	-15.72	12.48
O=C(CCN1CCCO1)N1CC[C@@H](c2ccc3ccccc3c2)[C@H](O)C1	-113.7	15.75
CCCn1cc(NC(=O)c2ccc(S(=O)(=O)CC)cc2)ccc1=O	-1.97	-17.47
O=C(O)C(F)(F)F.O=C(O)C(F)(F)F.O=S(=O)(C1CC1)N1CCC2(CCCN(Cc3ccccn3)C2)C1 (stereo not drawn)	-47.87	34.12
[H][C@@]12CCN(C(=O)C3CC3)[C@]1([H])C(=O)N(c1ccc(F)cc1)C(=O)N2	-11.51	-2.835
O=C(NC(C(=O)Nc1cc[nH]n1)c1ccccc1)C1CCC1 (stereo not drawn)	-54.35	-26.4
CCc1cc(NCCNC(=O)c2cccnc2)n2nc(C)c(C)c2n1	12.31	-22.93
CN1CCN(S(=O)(=O)N2CCCCC2CCc2ccc(O)cc2)CC1 (stereo not drawn)	-26.16	-1.066
CC(Cn1cccn1)NC(=O)c1ccsc1 (stereo not drawn)	-11.56	37.22
NC(=O)N1CCCC(C(=O)Nc2cccc(Cl)c2)C1 (stereo not drawn)	4.823	8.568
Clc1ccccc1CCn1ccnc1-c1cn(C2CCNCC2)nn1	-28.6	-11.26
CNc1cc(N2CCCC2CNCc2csc(C)n2)ncn1 (stereo not drawn)	-	47.86
Cc1noc(C)c1CN1CCn2cc(CN3CCCCC3)nc2C1.O=C(O)C(F)(F)F	-9.044	38.64

Once more, the final 3:

structure	T. brucei	Leishmania in macrophages
Clc1ccccc1CCn1ccnc1-c1cn(C2CCNCC2)nn1	-28.6	-11.26
CNc1cc(N2CCCC2CNCc2csc(C)n2)ncn1 (stereo not drawn)	-	47.86
Cc1noc(C)c1CN1CCn2cc(CN3CCCCC3)nc2C1.O=C(O)C(F)(F)F	-9.044	38.64

Data taken from ChEMBL document CHEMBL3988442, “University of Dundee, Small-Polar-MMV Screening Library” (2021).